The list shows a part of the results, in another mix than the full data. At the low end of the ranking, values are background and their order means little.
What follows are sequences tested against T1, ELK3 (UniProt P41970) (assay: DAPPL (digital affinity profiling via proximity ligation, sequencing)). Settings: 10 mM Tris-HCl pH 7.5, 50 mM NaCl, 1 mM DTT, 4% glycerol, room temperature, 30 min; GST-TFs on glutathione beads, 16-mer random dsDNA library, 0.1% …; high values mean tight binding; double strand, one strand shown; scale: fold enrichment (6-mer frequency, TF over GST control).
T1 sequence: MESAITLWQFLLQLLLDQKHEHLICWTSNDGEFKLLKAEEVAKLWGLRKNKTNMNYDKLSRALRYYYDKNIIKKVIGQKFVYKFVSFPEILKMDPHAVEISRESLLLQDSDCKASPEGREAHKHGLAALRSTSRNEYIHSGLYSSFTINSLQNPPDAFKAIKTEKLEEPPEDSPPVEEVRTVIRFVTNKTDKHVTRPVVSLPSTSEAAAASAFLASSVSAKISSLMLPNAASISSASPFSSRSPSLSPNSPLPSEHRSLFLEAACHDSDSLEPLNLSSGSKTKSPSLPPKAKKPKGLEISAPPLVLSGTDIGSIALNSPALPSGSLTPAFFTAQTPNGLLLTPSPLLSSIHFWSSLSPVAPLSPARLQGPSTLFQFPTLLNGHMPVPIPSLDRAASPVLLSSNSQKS
In the case of TCTCTA, the binding signal was 1.22.
TGAAAA gave a binding signal of 0.941.
ATAGCT showed a binding signal of 0.998.
GACCTG showed a binding signal of 1.35.
For TACTTT, the binding signal was 1.11.
In the case of TACGCC, the binding signal was 1.23.
Sequence TCTCAC has a binding signal of 1.58.
ATCTTC was tested, and the binding signal was 1.59.
ATCAGC showed a binding signal of 1.03.
TAGGTT was tested, and the binding signal was 1.16.
CCGATC was tested, and the binding signal was 1.17.
AATTAG showed a binding signal of 1.09.
TCCATC gave a binding signal of 1.28.
Work on GTGCTT yielded a binding signal of 1.4.
AATGCA was tested, and the binding signal was 1.3.
Sequence GATGCC has a binding signal of 1.38.
Sequence TCCTTT has a binding signal of 1.81.
TAGTCC was tested, and the binding signal was 1.07.
Work on CGAAAA yielded a binding signal of 1.01.
For TCCCCA, the binding signal was 1.34.
With CTCCGG the binding signal was 1.6.
AACCAA gave a binding signal of 1.19.
For TCTGTT, the binding signal was 1.15.
In the case of TTACCC, the binding signal was 1.39.
GGCTCT gave a binding signal of 1.42.
AAATTG was tested, and the binding signal was 1.22.
AGGCTC was tested, and the binding signal was 0.952.
Sequence TGCTGT has a binding signal of 0.962.
For AATTGT, the binding signal was 1.29.
Work on TGACTT yielded a binding signal of 1.27.
ATCTCG gave a binding signal of 1.26.
Work on GTTCCG yielded a binding signal of 1.71.
In the case of ATTGCT, the binding signal was 1.22.
In the case of ATTAGC, the binding signal was 1.09.
In the case of TGCTAC, the binding signal was 1.26.
With GTCTAC the binding signal was 1.06.
Sequence CTATGA has a binding signal of 1.01.
TGTTCT was tested, and the binding signal was 1.21.
CGATAC was tested, and the binding signal was 1.14.
Work on ATCTCT yielded a binding signal of 1.3.

What follows are sequences tested against T2, ETV3 (UniProt P41162-2) in the same assay as above. Settings: 10 mM Tris-HCl pH 7.5, 50 mM NaCl, 1 mM DTT, 4% glycerol, room temperature, 30 min; GST-TFs on glutathione beads, 16-mer random dsDNA library, 0.1% …; high values mean tight binding; double strand, one strand shown; scale: fold enrichment (6-mer frequency, TF over GST control).
T2 sequence: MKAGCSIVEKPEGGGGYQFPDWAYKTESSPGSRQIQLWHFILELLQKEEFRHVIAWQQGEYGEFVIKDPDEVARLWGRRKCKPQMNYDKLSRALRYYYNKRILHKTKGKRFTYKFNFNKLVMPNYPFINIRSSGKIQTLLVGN
TCTCTA gave a binding signal of 1.3.
TGAAAA gave a binding signal of 0.975.
With ATAGCT the binding signal was 1.12.
In the case of GACCTG, the binding signal was 1.17.
TCTCAC showed a binding signal of 1.34.
Sequence ATCAGC has a binding signal of 0.962.
TAGGTT showed a binding signal of 1.14.
Sequence CCGATC has a binding signal of 1.25.
AATTAG gave a binding signal of 1.19.
For TCCATC, the binding signal was 1.22.
In the case of AATGCA, the binding signal was 1.25.
GATGCC gave a binding signal of 1.39.
Sequence TCCTTT has a binding signal of 1.78.
TAGTCC gave a binding signal of 0.959.
In the case of CGAAAA, the binding signal was 0.957.
With TCCCCA the binding signal was 1.36.
Sequence AACCAA has a binding signal of 1.18.
AAATTG gave a binding signal of 1.28.
In the case of AGGCTC, the binding signal was 1.01.
Sequence TGCTGT has a binding signal of 0.993.
In the case of AATTGT, the binding signal was 1.31.
TGACTT showed a binding signal of 1.46.
ATCTCG gave a binding signal of 1.29.
GTTCCG showed a binding signal of 2.17.
ATTGCT gave a binding signal of 1.11.
TGCTAC was tested, and the binding signal was 1.23.
For GTCTAC, the binding signal was 1.06.
Sequence CTATGA has a binding signal of 0.965.
TGTTCT showed a binding signal of 1.27.
Work on CGATAC yielded a binding signal of 1.15.

Reference: publication PMC7862700
